The entries are a selection whose mix differs from that of the whole data set.
What follows are targets tested with COC(=O)C#Cc1ccccc1 [methyl 3-phenylpropiolate] (assay: log2 ratio of iodoacetamide-alkyne labeling of the cysteine site, DMSO over compound (competition); higher = stronger covalent engagement of the cysteine by the compound, active = 1 or more). Details: 500 µM; treatment time 1 h; system: HEK293T cell lysate.
Outline: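 Three replicates, each with duplicate channels, were prepared from HEK293T lysate (2 mg/mL) treated with vehicle or electrophile at 500 µM for 1 h at ambient temperature. Iodoacetamide alkyne was then applied for 1 h, and samples were clicked to sCIP-TMT reagents, pooled, trypsin-digested overnight at 37 °C, enriched on streptavidin, acid-eluted and analysed on Orbitrap Eclipse LC-MS/MS with FAIMS, with FragPipe quantification. The log2 competition ratio per cysteine is the mean control-channel divided by the mean compound-channel reporter intensity. Cysteines quantified in only one replicate were left out.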

log2 ratio of iodoacetamide-alkyne labeling, active:
ACO2 C448 (UniProt Q99798) 1.71

log2 ratio of iodoacetamide-alkyne labeling, inactive:
NCAPG C843 (UniProt Q9BPX3) 0.347
RBM14 C108 (UniProt Q96PK6) 0.0424
ADO C239 (UniProt Q96SZ5) 0.212
NACC1 C464 (UniProt Q96RE7) 0.0219
PAWR C173 (UniProt Q96IZ0) 0.32
L3MBTL3 C515 (UniProt Q96JM7) 0.108
UniProt Q96NC0_C85 0.128
STRBP C142 (UniProt Q96SI9) 0.448
MCCC1 C509 (UniProt Q96RQ3) 0.00784
CCT7 C158 (UniProt Q99832) 0.152
NSD1 C2508 (UniProt Q96L73) 0.287
EHMT2 C866 (UniProt Q96KQ7) -0.0266
ELAC2 C609 (UniProt Q9BQ52) 0.26
UHRF1 C762 (UniProt Q96T88) 0.107
RANBP9 C678 (UniProt Q96S59) 0.124
SCYL1 C241 (UniProt Q96KG9) 0.11
MYBBP1A C890 (UniProt Q9BQG0) 0.188
TUBA1C C347 (UniProt Q9BQE3) 0.49
VAT1 C86 (UniProt Q99536) 0.362
UHRF1 C512 (UniProt Q96T88) 0.219
POP1 C777 (UniProt Q99575) 0.339

Random excerpt: 2 records from the list, in no set order.
log2 ratio of iodoacetamide-alkyne labeling, inactive:
STRBP C142 (UniProt Q96SI9) 0.448
POP1 C777 (UniProt Q99575) 0.339

— the supplement of paper PMC11006884
